Patent US7880959B2, “Display element” (Konica Minolta Holdings, Inc., priority 2006, dated 2011)
Like-named read-outs stand apart in the source and are kept apart here.

Settings: for Display Speed Rglay: reflectance after -1.5 V for 0.5 sec, lower = faster

Row | SMILES | Display Speed Rglay (DMSO, AgI) | display speed (in words) (dimethylsulfoxide as electrolyte solvent) | Display Speed Rglay (γBL, silver tosylate)
1 | Sc1nc2ccccc2[nH]1 [Comp. 1, 2-mercaptobenzimidazole] | 40% | delayed | 
2 | NS(=O)(=O)c1ccccc1-c1nnc(S)[nH]1 [Compound 1-7] |  |  | 2%
3 | NC(=O)c1ccccc1-c1nnc(S)[nH]1 [Compound 1-8] |  |  | 6%
